Reference: doi:10.1101/2024.07.03.601930
These are yes or no findings as the source states them, for the method shown. For some assays here: In cells and extracts the contact can be indirect. Some results given as binding are weak or reduced against the parent protein; the word gives no strength. For some assays here: Sequences can lack the tags named with a protein.

Amino acid sequences for entries named in this document (tags omitted). Residues count along the entry.
UniProt Q9WV30, whole entry: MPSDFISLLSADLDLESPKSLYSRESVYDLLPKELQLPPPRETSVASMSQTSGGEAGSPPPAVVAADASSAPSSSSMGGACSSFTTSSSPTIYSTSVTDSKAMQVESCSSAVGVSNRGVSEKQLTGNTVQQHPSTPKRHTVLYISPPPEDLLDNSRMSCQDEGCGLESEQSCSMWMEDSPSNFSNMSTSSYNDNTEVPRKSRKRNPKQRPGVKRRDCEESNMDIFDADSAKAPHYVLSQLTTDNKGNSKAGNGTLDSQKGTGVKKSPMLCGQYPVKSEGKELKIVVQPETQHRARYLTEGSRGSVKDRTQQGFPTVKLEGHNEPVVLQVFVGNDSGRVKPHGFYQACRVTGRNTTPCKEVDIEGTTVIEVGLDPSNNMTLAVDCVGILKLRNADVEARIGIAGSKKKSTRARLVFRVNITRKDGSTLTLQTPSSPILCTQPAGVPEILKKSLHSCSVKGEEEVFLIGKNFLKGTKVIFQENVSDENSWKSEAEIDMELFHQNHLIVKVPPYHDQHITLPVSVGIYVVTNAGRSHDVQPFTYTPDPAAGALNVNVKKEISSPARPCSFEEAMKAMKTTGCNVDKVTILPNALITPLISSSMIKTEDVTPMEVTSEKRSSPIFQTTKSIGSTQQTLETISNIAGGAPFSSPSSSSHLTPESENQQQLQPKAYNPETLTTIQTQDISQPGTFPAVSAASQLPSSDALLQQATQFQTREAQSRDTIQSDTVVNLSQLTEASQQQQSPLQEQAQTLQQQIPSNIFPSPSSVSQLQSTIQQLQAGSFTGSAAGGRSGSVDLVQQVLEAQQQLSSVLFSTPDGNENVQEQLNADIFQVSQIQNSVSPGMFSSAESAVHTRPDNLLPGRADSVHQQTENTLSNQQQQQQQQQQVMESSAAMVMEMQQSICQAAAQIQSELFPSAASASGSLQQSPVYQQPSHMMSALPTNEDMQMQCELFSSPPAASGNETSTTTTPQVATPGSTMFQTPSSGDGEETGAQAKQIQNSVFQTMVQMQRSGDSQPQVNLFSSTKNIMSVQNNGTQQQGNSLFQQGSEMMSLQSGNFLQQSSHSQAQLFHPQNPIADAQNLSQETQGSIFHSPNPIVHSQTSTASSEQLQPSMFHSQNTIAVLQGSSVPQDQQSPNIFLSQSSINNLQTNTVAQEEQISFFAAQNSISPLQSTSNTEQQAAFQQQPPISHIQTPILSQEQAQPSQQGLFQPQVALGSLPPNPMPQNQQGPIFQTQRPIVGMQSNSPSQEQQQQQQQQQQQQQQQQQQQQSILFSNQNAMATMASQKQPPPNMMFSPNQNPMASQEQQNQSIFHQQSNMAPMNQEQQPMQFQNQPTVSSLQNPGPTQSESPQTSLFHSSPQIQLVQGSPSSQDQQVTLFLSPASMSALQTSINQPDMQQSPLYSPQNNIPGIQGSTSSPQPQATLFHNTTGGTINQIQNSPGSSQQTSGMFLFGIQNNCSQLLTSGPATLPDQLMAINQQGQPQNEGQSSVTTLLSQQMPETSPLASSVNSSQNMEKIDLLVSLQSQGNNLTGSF
UniProt P97471, whole entry: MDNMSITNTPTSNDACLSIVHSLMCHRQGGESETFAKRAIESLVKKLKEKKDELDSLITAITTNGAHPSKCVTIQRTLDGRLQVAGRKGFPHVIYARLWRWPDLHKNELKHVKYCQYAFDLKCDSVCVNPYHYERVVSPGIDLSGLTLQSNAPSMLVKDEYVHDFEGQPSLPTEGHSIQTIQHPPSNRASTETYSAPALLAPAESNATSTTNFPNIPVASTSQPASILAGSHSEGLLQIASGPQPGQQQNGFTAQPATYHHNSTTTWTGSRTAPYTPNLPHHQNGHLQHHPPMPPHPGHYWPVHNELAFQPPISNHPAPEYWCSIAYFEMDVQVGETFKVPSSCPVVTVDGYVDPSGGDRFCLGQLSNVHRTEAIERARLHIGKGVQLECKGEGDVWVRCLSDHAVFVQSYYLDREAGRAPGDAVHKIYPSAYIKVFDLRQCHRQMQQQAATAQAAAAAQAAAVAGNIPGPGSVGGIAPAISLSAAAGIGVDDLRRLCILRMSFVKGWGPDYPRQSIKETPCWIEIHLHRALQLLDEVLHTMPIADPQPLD
UniProt P70210, whole entry: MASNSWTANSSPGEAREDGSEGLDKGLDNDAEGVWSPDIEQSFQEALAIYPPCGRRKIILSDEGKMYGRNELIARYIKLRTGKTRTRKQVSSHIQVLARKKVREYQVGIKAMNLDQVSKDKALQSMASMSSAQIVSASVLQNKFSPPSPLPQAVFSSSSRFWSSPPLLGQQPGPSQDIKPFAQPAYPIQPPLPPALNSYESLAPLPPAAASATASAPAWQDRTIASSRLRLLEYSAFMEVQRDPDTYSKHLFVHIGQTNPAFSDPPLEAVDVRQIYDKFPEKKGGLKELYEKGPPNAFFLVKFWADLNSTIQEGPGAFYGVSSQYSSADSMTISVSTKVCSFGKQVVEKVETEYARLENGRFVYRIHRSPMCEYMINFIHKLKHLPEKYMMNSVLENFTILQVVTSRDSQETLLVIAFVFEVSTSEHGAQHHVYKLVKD
UniProt Q04206, whole entry: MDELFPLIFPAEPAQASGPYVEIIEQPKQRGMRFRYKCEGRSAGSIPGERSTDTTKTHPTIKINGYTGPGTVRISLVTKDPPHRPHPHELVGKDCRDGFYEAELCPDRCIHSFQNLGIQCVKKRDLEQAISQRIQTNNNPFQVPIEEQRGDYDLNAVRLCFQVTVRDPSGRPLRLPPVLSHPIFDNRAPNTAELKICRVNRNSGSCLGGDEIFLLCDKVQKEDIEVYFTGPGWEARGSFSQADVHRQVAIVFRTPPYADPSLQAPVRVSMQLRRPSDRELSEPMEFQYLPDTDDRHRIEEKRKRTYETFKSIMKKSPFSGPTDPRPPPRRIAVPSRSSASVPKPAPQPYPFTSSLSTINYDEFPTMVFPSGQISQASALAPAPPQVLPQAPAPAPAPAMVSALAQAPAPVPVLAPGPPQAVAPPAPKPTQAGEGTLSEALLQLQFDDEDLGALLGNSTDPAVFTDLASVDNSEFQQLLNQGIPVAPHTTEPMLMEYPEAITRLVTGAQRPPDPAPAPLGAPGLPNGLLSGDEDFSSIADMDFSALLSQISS
UniProt Q04207, 19-304: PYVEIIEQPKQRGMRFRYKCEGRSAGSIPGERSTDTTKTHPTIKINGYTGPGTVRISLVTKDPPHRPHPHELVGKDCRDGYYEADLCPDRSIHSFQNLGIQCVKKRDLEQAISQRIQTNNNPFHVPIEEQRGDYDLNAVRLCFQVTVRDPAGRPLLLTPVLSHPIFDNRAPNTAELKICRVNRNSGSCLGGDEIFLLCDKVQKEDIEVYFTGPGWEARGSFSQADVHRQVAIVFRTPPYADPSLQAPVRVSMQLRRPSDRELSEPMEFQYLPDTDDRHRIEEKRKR
UniProt P25799, 1-435: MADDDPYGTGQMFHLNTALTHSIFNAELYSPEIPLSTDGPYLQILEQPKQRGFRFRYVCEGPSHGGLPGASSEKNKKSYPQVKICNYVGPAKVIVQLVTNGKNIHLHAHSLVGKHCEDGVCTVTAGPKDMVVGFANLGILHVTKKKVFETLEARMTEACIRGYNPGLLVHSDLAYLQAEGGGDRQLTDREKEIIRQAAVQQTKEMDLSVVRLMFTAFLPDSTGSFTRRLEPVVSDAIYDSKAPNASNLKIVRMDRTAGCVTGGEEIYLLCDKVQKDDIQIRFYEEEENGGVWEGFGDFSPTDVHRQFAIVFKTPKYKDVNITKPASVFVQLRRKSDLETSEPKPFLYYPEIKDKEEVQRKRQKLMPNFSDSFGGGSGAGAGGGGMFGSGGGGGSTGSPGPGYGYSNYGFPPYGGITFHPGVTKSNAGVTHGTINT

Experiments:
FLAG-tagged Cux1 = biological target: T1, FLAG-tagged Cux1 (UniProt P53564); test: co-IP
T1 sequence: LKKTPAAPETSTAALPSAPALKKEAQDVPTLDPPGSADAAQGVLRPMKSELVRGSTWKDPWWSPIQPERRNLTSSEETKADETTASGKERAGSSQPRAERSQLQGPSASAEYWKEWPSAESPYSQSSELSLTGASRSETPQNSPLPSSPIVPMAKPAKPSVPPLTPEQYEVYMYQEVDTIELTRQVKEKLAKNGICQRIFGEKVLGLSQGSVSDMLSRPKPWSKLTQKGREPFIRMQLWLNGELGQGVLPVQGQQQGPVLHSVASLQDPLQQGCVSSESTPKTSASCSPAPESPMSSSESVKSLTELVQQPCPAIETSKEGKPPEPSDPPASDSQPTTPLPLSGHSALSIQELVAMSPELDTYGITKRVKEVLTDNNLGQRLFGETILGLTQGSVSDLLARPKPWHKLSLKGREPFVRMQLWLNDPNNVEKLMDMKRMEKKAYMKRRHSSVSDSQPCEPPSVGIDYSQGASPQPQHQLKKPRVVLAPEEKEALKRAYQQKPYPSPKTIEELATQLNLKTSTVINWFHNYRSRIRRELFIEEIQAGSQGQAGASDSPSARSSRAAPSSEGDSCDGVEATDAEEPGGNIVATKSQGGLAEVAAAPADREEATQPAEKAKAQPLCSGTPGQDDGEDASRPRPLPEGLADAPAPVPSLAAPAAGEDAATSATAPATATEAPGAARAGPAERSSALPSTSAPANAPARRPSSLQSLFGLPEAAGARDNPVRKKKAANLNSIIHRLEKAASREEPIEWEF

FLAG-tagged Nfat5 = FLAG-tagged Nfat5 (UniProt Q9WV30); test: co-IP
FLAG-tagged Nfatc1 = biological target: T2, FLAG-tagged Nfatc1 (UniProt O88942); test: co-IP
T2 sequence: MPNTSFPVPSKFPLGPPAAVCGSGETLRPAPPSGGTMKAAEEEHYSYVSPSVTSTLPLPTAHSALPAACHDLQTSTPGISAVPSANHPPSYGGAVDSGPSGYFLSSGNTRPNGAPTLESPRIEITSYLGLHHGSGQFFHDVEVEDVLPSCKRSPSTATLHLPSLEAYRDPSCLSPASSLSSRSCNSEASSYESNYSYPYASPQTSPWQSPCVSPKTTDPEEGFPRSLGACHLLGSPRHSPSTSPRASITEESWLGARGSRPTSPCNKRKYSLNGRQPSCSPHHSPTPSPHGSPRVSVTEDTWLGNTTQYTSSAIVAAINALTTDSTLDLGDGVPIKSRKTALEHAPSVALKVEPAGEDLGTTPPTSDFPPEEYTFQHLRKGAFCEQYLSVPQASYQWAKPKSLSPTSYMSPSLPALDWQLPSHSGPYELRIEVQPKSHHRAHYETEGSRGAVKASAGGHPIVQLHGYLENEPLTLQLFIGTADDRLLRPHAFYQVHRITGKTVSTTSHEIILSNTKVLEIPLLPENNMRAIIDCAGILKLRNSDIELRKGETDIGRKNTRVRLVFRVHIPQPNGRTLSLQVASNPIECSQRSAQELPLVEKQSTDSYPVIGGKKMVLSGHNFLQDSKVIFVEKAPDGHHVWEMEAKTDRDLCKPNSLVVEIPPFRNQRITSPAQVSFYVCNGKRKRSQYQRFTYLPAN

FLAG-tagged Smad4 = FLAG-tagged Smad4 (UniProt P97471); test: co-IP
FLAG-tagged Tead3 = FLAG-tagged Tead3 (UniProt P70210); test: co-IP
[1] = biological target: Full length His-RelA (1-551) (UniProt Q04206); test: SEC
untagged RelA(19-304) = untagged RelA(19-304) (UniProt Q04207); test: crystal structure

HA-tagged RelA (from UniProt Q04206 1-551)
binding (FLAG-tagged Cux1): binds weakly | binding (FLAG-tagged Nfat5): binds weakly | binding (FLAG-tagged Nfatc1): binds weakly | binding (FLAG-tagged Smad4): binds weakly | binding (FLAG-tagged Tead3): binds weakly

His-tagged p50 (1-435) (from UniProt P25799 1-435) (domain or fragment)
binding [1]: binds

endogenous RelA (from UniProt Q04206 1-551)
binding (FLAG-tagged Nfatc1): binds

untagged RelA(19-304) (from UniProt Q04207 19-304) (domain or fragment)
binding (untagged RelA(19-304)): binds
